Test results as given in US20110059962A1, “TRANSCRIPTION FACTOR MODULATING COMPOUNDS AND METHODS OF USE THEREOF” (priority 2009, published 2011).

Biological target: T1, SoxS (Escherichia coli) (UniProt P0A9E2)
T1 sequence (looked up, limits assumed): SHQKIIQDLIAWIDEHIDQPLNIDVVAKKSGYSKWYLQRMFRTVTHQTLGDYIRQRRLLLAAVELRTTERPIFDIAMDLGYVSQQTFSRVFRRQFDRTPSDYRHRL
Test: binding assay
Conditions: chemiluminescence plate assay, 20 nM protein, 2 nM DNA; binding inhibited by compounds; DNA sequence given only in Example 12; purified recombinant protein; protein details: 6xHis

CCGATTTAGCAAAACGTCGCATCGGTC (double strand) [biotinylated target dsDNA]
binding result: binds

Tags and fusion partners may be left off the protein sequences shown.
